The values that follow come from patent US7265246B2, “Indane derivates as muscarinic receptor agonists” (Eli Lilly and Company, priority 2003, dated 2007).

This assay relates to Male Sprague-Dawley rats. To be noted: s.c. immediately after the sampling phase; tested after a three-hour delay.

As to `CN1[C@@H]2C[C@@H](OC(=O)[C@H](CO)c3ccccc3)C[C@H]1[C@@H]1O[C@@H]12` [Scopolamine, scopolamine], the “retention in the eight arm radial maze” value is “disrupted retention after a three-hour delay in a dose-related fashion”.
